Values of other authors as cited in US20040028752A1, “Topical pharmaceutical composition comprising a cholinergic agent or a calcium channel blocker” (S.L.A. Pharma AG., priority 2002, published 2004).
At least one compound was matched to its structure with a doubt left.

Test system: internal anal sphincter
Details: patients with high anal resting pressure; cited from earlier work

SMILES: COC(=O)C1=C(C)NC(C)=C(C(=O)OC)C1c1ccccc1[N+](=O)[O-] [nifedipine]
- effect on the internal anal sphincter: reducing the activity of the internal anal sphincter
